Amino acid sequences for entries named in this document (tags omitted).
UniProt O14744: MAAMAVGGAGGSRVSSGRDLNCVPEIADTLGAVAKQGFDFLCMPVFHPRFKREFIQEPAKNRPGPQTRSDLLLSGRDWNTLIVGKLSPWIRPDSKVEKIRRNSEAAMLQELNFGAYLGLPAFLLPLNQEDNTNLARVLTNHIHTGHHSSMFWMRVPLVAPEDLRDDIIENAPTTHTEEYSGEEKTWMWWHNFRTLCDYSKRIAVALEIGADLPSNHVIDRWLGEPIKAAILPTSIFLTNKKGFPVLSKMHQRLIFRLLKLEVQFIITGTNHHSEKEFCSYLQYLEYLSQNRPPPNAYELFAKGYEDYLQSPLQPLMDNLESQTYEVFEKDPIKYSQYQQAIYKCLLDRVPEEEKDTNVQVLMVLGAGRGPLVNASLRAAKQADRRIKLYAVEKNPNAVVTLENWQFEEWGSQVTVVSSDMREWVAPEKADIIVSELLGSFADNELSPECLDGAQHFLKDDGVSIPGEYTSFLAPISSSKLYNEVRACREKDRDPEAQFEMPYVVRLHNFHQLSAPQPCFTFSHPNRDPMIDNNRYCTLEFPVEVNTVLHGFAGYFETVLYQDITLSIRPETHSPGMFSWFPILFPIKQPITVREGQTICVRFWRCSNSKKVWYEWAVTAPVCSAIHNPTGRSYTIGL

According to publication PMC4612562, “Coronin 2A (CRN5) expression is associated with colorectal adenoma-adenocarcinoma sequence and oncogenic signalling” (BMC Cancer, 2015):

Target: T1, GFP-CRN5 stably over-expressed in U373 cells (human) (UniProt Q92828)
T1 sequence: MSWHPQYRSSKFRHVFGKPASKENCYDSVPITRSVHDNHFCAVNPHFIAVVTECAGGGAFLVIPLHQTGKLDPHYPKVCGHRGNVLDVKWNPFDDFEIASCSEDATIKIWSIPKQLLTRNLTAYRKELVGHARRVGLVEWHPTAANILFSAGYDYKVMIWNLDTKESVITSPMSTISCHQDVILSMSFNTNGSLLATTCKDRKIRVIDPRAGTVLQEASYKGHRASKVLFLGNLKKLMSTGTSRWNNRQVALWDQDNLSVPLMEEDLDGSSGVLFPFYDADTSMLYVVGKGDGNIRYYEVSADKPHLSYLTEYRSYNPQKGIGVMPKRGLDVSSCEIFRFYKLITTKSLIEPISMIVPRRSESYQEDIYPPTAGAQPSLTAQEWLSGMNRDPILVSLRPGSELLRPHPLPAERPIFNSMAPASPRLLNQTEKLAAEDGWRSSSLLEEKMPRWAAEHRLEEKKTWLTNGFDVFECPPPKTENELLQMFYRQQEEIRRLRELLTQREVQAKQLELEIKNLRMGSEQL
Experiment: affinity purification with mass spectrometry; lysates of U373 cells stably over-expressing GFP-CRN5; GFP-antibody coated magnetic microbeads; washes with 50 mM Tris HCl pH 8.0, 150 mM NaCl, 0.1 % Triton X-100; SDS-PAGE, Coomassie bands identified by mass spectrometry

binding: binds
Substance: PRMT5 (protein arginine N-methyltransferase 5), endogenous (from UniProt O14744 1-637) (enzyme)

Results are given in words; binding and its absence hold for the method and conditions named. In cells and extracts the contact can be indirect. A yes stands for co-enrichment or nearness to the bait. Other partners may have been found. Where a sequence is shown, tags or fusion partners need not be part of it.
